The results in this text go back to patent publication US20110167519A1.

These are yes or no findings as the source states them, for the method shown. Some binding calls cover weakened binding; strength is not graded here.

In this experiment the target is T1, wild type maize endosperm AGP large subunit (SH2 protein, encoded by shrunken-2) (maize) (UniProt P55241).
T1 sequence (looked up): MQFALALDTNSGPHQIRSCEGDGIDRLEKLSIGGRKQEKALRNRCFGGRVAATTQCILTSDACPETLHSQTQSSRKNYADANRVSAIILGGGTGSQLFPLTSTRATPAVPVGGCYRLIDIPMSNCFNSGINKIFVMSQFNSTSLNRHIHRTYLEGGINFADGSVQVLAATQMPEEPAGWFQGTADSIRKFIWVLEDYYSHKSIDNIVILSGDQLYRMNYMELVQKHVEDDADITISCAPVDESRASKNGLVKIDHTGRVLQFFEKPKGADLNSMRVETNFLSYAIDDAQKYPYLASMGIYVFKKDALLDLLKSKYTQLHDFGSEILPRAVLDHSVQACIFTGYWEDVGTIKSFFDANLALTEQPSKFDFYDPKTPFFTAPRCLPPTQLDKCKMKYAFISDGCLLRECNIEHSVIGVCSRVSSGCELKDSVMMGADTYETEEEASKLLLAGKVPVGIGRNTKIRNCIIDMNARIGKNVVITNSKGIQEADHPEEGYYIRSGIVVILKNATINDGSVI
Put plainly: blue native gel of purified E. coli-expressed AGP (small subunit with SH2 large subunit).

B1: QTCL mutant maize endosperm AGP small subunit (Tyr36 to Cys and a glutamine inserted between Ser34 and Thr35) (enzyme)
chain: MDMALASKASPPPWNATAAEQPIPKRDKAAANDSQTCLNPQAHDSVLGIILGGGAGTRLYPLTKKRAKPAVPLGANYRLIDIPVSNCLNSNISKIYVLTQFNSASLNRHLSRAYGSNIGGYKNEGFVEVLAAQQSPDNPNWFQGTADAVRQYLWLFEEHNVMEFLILAGDHLYRMDYEKFIQAHRETNADITVAALPMDEKRATAFGLMKIDEEGRIIEFAEKPKGEQLKAMMVDTTILGLDDVRAKEMPYIASMGIYVFSKDVMLQLLREQFPEANDFGSEVIPGATSIGKRVQAYLYDGYWEDIGTIAAFYNANLGITKKPIPDFSFYDRFAPIYTQPRHLPPSKVLDADVTDSVIGEGCVIKNCKINHSVVGLRSCISEGAIIEDSLLMGADYYETEADKKLLAEKGGIPIGIGKNSCIRRAIIDKNARIGDNVKILNADNVQEAAMETDGYFIKGGIVTVIKDALLPSGTVI
In the case of B1, the binding result is “binds”.

B2: wild type maize endosperm AGP small subunit (BT2 protein, encoded by brittle-2) (enzyme)
chain: MDMALASKASPPPWNATAAEQPIPKRDKAAANDSTYLNPQAHDSVLGIILGGGAGTRLYPLTKKRAKPAVPLGANYRLIDIPVSNCLNSNISKIYVLTQFNSASLNRHLSRAYGSNIGGYKNEGFVEVLAAQQSPDNPNWFQGTADAVRQYLWLFEEHNVMEFLILAGDHLYRMDYEKFIQAHRETNADITVAALPMDEKRATAFGLMKIDEEGRIIEFAEKPKGEQLKAMMVDTTILGLDDVRAKEMPYIASMGIYVFSKDVMLQLLREQFPEANDFGSEVIPGATSIGKRVQAYLYDGYWEDIGTIAAFYNANLGITKKPIPDFSFYDRFAPIYTQPRHLPPSKVLDADVTDSVIGEGCVIKNCKINHSVVGLRSCISEGAIIEDSLLMGADYYETEADKKLLAEKGGIPIGIGKNSCIRRAIIDKNARIGDNVKILNADNVQEAAMETDGYFIKGGIVTVIKDALLPSGTVI
For B2, the binding entry is listed as “binds”.
